Reference: patent US8979831B2 (priority 2008, dated 2015)
Where two headings read alike, the source gives them in different places.

What was measured:
porcine liver samples = settings: for Changes Temp: C. Trial #1 / Changes Temp: C. Trial #2 / Changes Temp: C. Trial #3 / Changes Temp: C. Trial #4: peak minus 0:00
liver parenchyma = test system: liver parenchyma; parameters: species or system porcine
porcine liver = assay: Acetyl Chloride injection into porcine liver using a plastic dilator as delivery tool
ex vivo porcine liver = assay: Acetyl chloride in diglyme injected into ex vivo porcine liver; temperature over 5 minutes; settings: 4M in diglyme, average column
[1] = Acetyl Chloride alone: 200 microliters, first Changes line, 0:00 minus 0:30
[2] = Acetyl Chloride alone: 200 microliters
[3] = Acetyl Chloride alone: 200 microliters, second Changes line, 0:00 minus 5:00
[4] = Acetyl Chloride alone: 300 microliters, first Changes line, 0:00 minus 0:30
[5] = Acetyl Chloride alone: 300 microliters
[6] = Acetyl Chloride alone: 300 microliters, second Changes line, 0:00 minus 5:00
[7] = Acetyl Chloride alone: 500 microliters, first Changes line, 0:00 minus 0:30
[8] = Acetyl Chloride alone: 500 microliters
[9] = Acetyl Chloride alone: 500 microliters, second Changes line, 0:00 minus 5:00
[10] = AC 100 micro + 200 micro NaOH 1M, Trial #1
[11] = AC 100 micro + 200 micro NaOH 5M, Trial #2
[12] = AC 100 micro + 200 micro NaOH 10M, Trial #3
[13] = AC 200 micro + 100 micro NaOH 1M, Trial #1
[14] = AC 200 micro + 100 micro NaOH 5M, Trial #2
[15] = AC 200 micro + 100 micro NaOH 10M, Trial #3
[16] = AC 200 micro + 100 micro NaOH 15M, Trial #4
[17] = AC 200 micro + 200 micro NaOH 1M, Trial #1
[18] = AC 200 micro + 200 micro NaOH 5M, Trial #2
[19] = AC 200 micro + 200 micro NaOH 10M, Trial #3
[20] = AC 300 micro + 100 micro NaOH 1M, Trial #1
[21] = AC 300 micro + 100 micro NaOH 5M, Trial #2
[22] = AC 300 micro + 100 micro NaOH 10M, Trial #3
[23] = AC 300 micro + 100 micro NaOH 15M, Trial #4
[24] = AC 300 micro + 200 micro NaOH 1M, Trial #1
[25] = AC 300 micro + 200 micro NaOH 5M, Trial #2
[26] = AC 300 micro + 200 micro NaOH 10M, Trial #3
[27] = first Changes line, 0:00 minus 0:30
[28] = second Changes line, 0:00 minus 5:00

Which results are given for `CC(=O)Cl` [Acetyl Chloride]?
Changes pH Trial #1 (porcine liver samples; [1]): 2.75; Changes pH Trial #2 (porcine liver samples; [1]): 2.05; Changes pH Trial #3 (porcine liver samples; [1]): 1.43; Changes pH Trial #4 (porcine liver samples; [1]): 3.44; Changes Temp: C. Trial #1 (porcine liver samples; [2]): 17.2 C.; Changes Temp: C. Trial #2 (porcine liver samples; [2]): 7.2 C.; Changes Temp: C. Trial #3 (porcine liver samples; [2]): 11.2 C.; Changes Temp: C. Trial #4 (porcine liver samples; [2]): 8.2 C.; Changes pH Trial #1 (porcine liver samples; [3]): 4.89; Changes pH Trial #2 (porcine liver samples; [3]): 4.27; Changes pH Trial #3 (porcine liver samples; [3]): 3.45; Changes pH Trial #4 (porcine liver samples; [3]): 4.22; Changes pH Trial #1 (porcine liver samples; [4]): 4.27; Changes pH Trial #2 (porcine liver samples; [4]): 2.93; Changes pH Trial #4 (porcine liver samples; [4]): 1.37; Changes Temp: C. Trial #1 (porcine liver samples; [5]): 4.3 C.; Changes Temp: C. Trial #2 (porcine liver samples; [5]): 9.5 C.; Changes Temp: C. Trial #3 (porcine liver samples; [5]): 7.4 C.; Changes Temp: C. Trial #4 (porcine liver samples; [5]): 6.3 C.; Changes pH Trial #1 (porcine liver samples; [6]): 5.37; Changes pH Trial #2 (porcine liver samples; [6]): 4; Changes pH Trial #4 (porcine liver samples; [6]): 4.68; Changes pH Trial #1 (porcine liver samples; [7]): 3.5; Changes pH Trial #2 (porcine liver samples; [7]): 3.14; Changes pH Trial #3 (porcine liver samples; [7]): 3.84; Changes Temp: C. Trial #1 (porcine liver samples; [8]): 26.1 C.; Changes Temp: C. Trial #2 (porcine liver samples; [8]): 11.8 C.; Changes Temp: C. Trial #3 (porcine liver samples; [8]): 12.8 C.; Changes pH Trial #1 (porcine liver samples; [9]): 5.01; Changes pH Trial #2 (porcine liver samples; [9]): 4.72; Changes pH Trial #3 (porcine liver samples; [9]): 4.53; Changes pH 1M Trial #1 (liver parenchyma; AC 100 micro + 100 micro NaOH 1M, Pre-base minus 0:00): −4.69; Changes pH 5M Trial #2 (liver parenchyma; AC 100 micro + 100 micro NaOH 5M, Pre-base minus 0:00): −7.08; Changes Temp: C. 5M Trial #2 (liver parenchyma; AC 100 micro + 100 micro NaOH 5M, peak minus Pre-base): 17 C.; Changes pH 10M Trial #3 (liver parenchyma; AC 100 micro + 100 micro NaOH 10M, Pre-base minus 0:00): −7.54; Changes Temp: C. 10M Trial #3 (liver parenchyma; AC 100 micro + 100 micro NaOH 10M, peak minus Pre-base): 29.8 C.; Changes pH 15M Trial #4 (liver parenchyma; AC 100 micro + 100 micro NaOH 15M, Pre-base minus 0:00): −7.82; Changes Temp (liver parenchyma; [10]): 16.6 C.; Changes pH (liver parenchyma; [10]): −8.3; Changes Temp (liver parenchyma; [11]): 22.7 C.; Changes pH (liver parenchyma; [11]): −8.97; Changes Temp (liver parenchyma; [12]): 16 C.; Changes pH (liver parenchyma; [12]): −8.58; Changes Temp (liver parenchyma; [13]): 15.4 C.; Changes pH (liver parenchyma; [13]): −5.76; Changes Temp (liver parenchyma; [14]): 7.9 C.; Changes pH (liver parenchyma; [14]): −7.46; Changes Temp (liver parenchyma; [15]): 32.2 C.; Changes pH (liver parenchyma; [15]): −7.87; Changes Temp (liver parenchyma; [16]): 23.3 C.; Changes pH (liver parenchyma; [16]): −7.8; Changes Temp (liver parenchyma; [17]): 14 C.; Changes pH (liver parenchyma; [17]): −7.98; Changes Temp (liver parenchyma; [18]): 20.6 C.; Changes pH (liver parenchyma; [18]): −8.9; Changes Temp (liver parenchyma; [19]): 21.9 C.; Changes pH (liver parenchyma; [19]): −7.2; Changes Temp (liver parenchyma; [20]): 22.5 C.; Changes pH (liver parenchyma; [20]): −6.15; Changes Temp (liver parenchyma; [21]): 15.9 C.; Changes pH (liver parenchyma; [21]): −8.38; Changes Temp (liver parenchyma; [22]): 16.3 C.; Changes pH (liver parenchyma; [22]): −8; Changes Temp (liver parenchyma; [23]): 32 C.; Changes pH (liver parenchyma; [23]): −8.69; Changes Temp (liver parenchyma; [24]): 25 C.; Changes pH (liver parenchyma; [24]): −8.12; Changes Temp (liver parenchyma; [25]): 24.4 C.; Changes pH (liver parenchyma; [25]): −8.05; Changes Temp (liver parenchyma; [26]): 28.4 C.; Changes pH (liver parenchyma; [26]): −9.4; Changes pH Trial #1 (porcine liver; [27]): 5.86; Changes pH Trial #2 (porcine liver; [27]): 1.64; Changes pH Trial #3 (porcine liver; [27]): 3.09; Changes Temp: C. Trial #1 (porcine liver; peak minus 0:00): 9.9 C.; Changes Temp: C. Trial #2 (porcine liver; peak minus 0:00): 8.3 C.; Changes Temp: C. Trial #3 (porcine liver; peak minus 0:00): 8.3 C.; Changes pH Trial #1 (porcine liver; [28]): 6.84; Changes pH Trial #2 (porcine liver; [28]): 3.28; Changes pH Trial #3 (porcine liver; [28]): 5.63; Max delta T (ex vivo porcine liver; 250 ul): 28.7667 C.; Tmax (ex vivo porcine liver; 250 ul): 46.4667 C.; Max delta T (ex vivo porcine liver; 2000 ul): 37.6333 C.; Tmax (ex vivo porcine liver; 2000 ul): 55.0667 C.
